Measurements reported in PubChem BioAssay AID1259405 (NCATS, 2018).
The whole screen tested about 50,000 reagents; shown is an unselected part. About 4,000 of all reagents (8%) were called active. 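Mouse siRNA library applied to hamster cells; one well for each siRNA.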 Reagents against one gene are numbered here. Reagent sequences are not shown.

- Purpose: 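Silenced genes that increase secreted GFP made by CHO cells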 (primary screen)
- System: Chinese hamster CHO-K1 ovary cells with stable secreted eGFP expression
- Reagent: single siRNA against mouse genes, 0.8 pmol siRNA per well (2 µl of 400 nM stock)
- Time to read-out: 3 days
- Read-out: 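Per-well intracellular GFP measured by laser scanning cytometry, plus viability from ATP luminescence, each relative to plate median of non-targeting control wells, in %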
- Scale: GFP, % of control: higher = more GFP per well, higher productivity; viability (ATP), % of control: higher = more viable cells (more ATP)
- Active means: 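a knock-down is called active if GFP reaches 120% or more of non-targeting control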

Ssna1 (SS nuclear autoantigen 1) #1 showed GFP, % of control 39; viability (ATP), % of control 42.1; inactive. After knock-down of Ssna1 (SS nuclear autoantigen 1) #2 the results were GFP, % of control 118; viability (ATP), % of control 114; inactive. Against Ssna1 (SS nuclear autoantigen 1) #3, the values are GFP, % of control 119; viability (ATP), % of control 94.7; inactive. With knock-down of Cwc25 (CWC25 spliceosome-associated protein) #1, the screen gave GFP, % of control 68.4; viability (ATP), % of control 88.8; inactive. Silencing of Cwc25 (CWC25 spliceosome-associated protein) #2 came out at: GFP, % of control 58.7; viability (ATP), % of control 83.3; inactive. With knock-down of Cwc25 (CWC25 spliceosome-associated protein) #3, the record shows GFP, % of control 115; viability (ATP), % of control 68.4; inactive.

With knock-down of Sik2 (salt inducible kinase 2), the screen gave GFP, % of control 103; viability (ATP), % of control 72.5; inactive. Silencing of Krtap5-5 (keratin associated protein 5-5) #1 gave: GFP, % of control 109; viability (ATP), % of control 60.5; inactive. With knock-down of Krtap5-5 (keratin associated protein 5-5) #2 the results were GFP, % of control 77.2; viability (ATP), % of control 65.1; inactive. After knock-down of Krtap5-5 (keratin associated protein 5-5) #3, the record shows GFP, % of control 80.2; viability (ATP), % of control 70; inactive. Zfp958 (zinc finger protein 958) #1 gave GFP, % of control 71.2; viability (ATP), % of control 102; inactive. For Zfp958 (zinc finger protein 958) #2 the deposit lists GFP, % of control 46.8; viability (ATP), % of control 58.9; inactive.

For Zfp958 (zinc finger protein 958) #3, the values are GFP, % of control 86.7; viability (ATP), % of control 87.1; inactive. Against Prg3 (proteoglycan 3) #1, the entry reads GFP, % of control 52.7; viability (ATP), % of control 61.2; inactive. Depletion of Prg3 (proteoglycan 3) #2 gave: GFP, % of control 87.5; viability (ATP), % of control 96.5; inactive. Silencing of Prg3 (proteoglycan 3) #3 came out at: GFP, % of control 88.4; viability (ATP), % of control 83; inactive. After knock-down of Pld1 (phospholipase D1) #1, the screen gave GFP, % of control 97.8; viability (ATP), % of control 85.1; inactive. Pld1 (phospholipase D1) #2 gave GFP, % of control 103; viability (ATP), % of control 81.1; inactive.

Pld1 (phospholipase D1) #3 gave GFP, % of control 89.2; viability (ATP), % of control 103; inactive. Uqcrc2 (ubiquinol cytochrome c reductase core protein 2) #1 scored GFP, % of control 67.4; viability (ATP), % of control 77.2; inactive. Uqcrc2 (ubiquinol cytochrome c reductase core protein 2) #2 showed GFP, % of control 56.8; viability (ATP), % of control 46.7; inactive. Against Uqcrc2 (ubiquinol cytochrome c reductase core protein 2) #3, the values are GFP, % of control 55.9; viability (ATP), % of control 40.9; inactive. With knock-down of Fut8 (fucosyltransferase 8) #1 the results were GFP, % of control 67.7; viability (ATP), % of control 62; inactive. For Fut8 (fucosyltransferase 8) #2, the values are GFP, % of control 55.5; viability (ATP), % of control 62.1; inactive.

With knock-down of Fut8 (fucosyltransferase 8) #3, the screen gave GFP, % of control 120; viability (ATP), % of control 78.7; active. For Hadh (hydroxyacyl-Coenzyme A dehydrogenase) #1, the values are GFP, % of control 75; viability (ATP), % of control 79.4; inactive. With knock-down of Hadh (hydroxyacyl-Coenzyme A dehydrogenase) #2, the screen gave GFP, % of control 92.8; viability (ATP), % of control 49.9; inactive. After knock-down of Hadh (hydroxyacyl-Coenzyme A dehydrogenase) #3, the screen gave GFP, % of control 108; viability (ATP), % of control 78.8; inactive. Against Txndc8 (thioredoxin domain containing 8) #1 the deposit lists GFP, % of control 45.9; viability (ATP), % of control 52.3; inactive. Txndc8 (thioredoxin domain containing 8) #2 gave GFP, % of control 79; viability (ATP), % of control 45.3; inactive.

With knock-down of Txndc8 (thioredoxin domain containing 8) #3 the results were GFP, % of control 69.6; viability (ATP), % of control 81.9; inactive. L1cam (L1 cell adhesion molecule) #1 gave GFP, % of control 55.1; viability (ATP), % of control 52.7; inactive. Depletion of L1cam (L1 cell adhesion molecule) #2 gave: GFP, % of control 96.2; viability (ATP), % of control 94.1; inactive. After knock-down of Ephx2 (epoxide hydrolase 2, cytoplasmic) #1, the record shows GFP, % of control 106; viability (ATP), % of control 112; inactive. Silencing of Ephx2 (epoxide hydrolase 2, cytoplasmic) #2 came out at: GFP, % of control 80.6; viability (ATP), % of control 85.3; inactive. Knock-down of Ephx2 (epoxide hydrolase 2, cytoplasmic) #3 came out at: GFP, % of control 67.6; viability (ATP), % of control 67.7; inactive.

Gabra6 (gamma-aminobutyric acid type A receptor subunit alpha 6) #1 gave GFP, % of control 92; viability (ATP), % of control 83.7; inactive. Gabra6 (gamma-aminobutyric acid type A receptor subunit alpha 6) #2 gave GFP, % of control 61.6; viability (ATP), % of control 70.6; inactive. Against Gabra6 (gamma-aminobutyric acid type A receptor subunit alpha 6) #3, the values are GFP, % of control 82.8; viability (ATP), % of control 53.3; inactive. Rgs18 (regulator of G-protein signaling 18) #1 showed GFP, % of control 67.3; viability (ATP), % of control 71.9; inactive. With knock-down of Rgs18 (regulator of G-protein signaling 18) #2, the screen gave GFP, % of control 37.3; viability (ATP), % of control 18.7; inactive. Against Rgs18 (regulator of G-protein signaling 18) #3, the values are GFP, % of control 74.7; viability (ATP), % of control 51.9; inactive.

Records listed above with an active call:
Fut8 (fucosyltransferase 8) #3 — GFP, % of control: 120; viability (ATP), % of control: 78.7; Call: active
